Sequences of proteins named here, by UniProt entry; tags and fusion partners are left off.
UniProt Q14671: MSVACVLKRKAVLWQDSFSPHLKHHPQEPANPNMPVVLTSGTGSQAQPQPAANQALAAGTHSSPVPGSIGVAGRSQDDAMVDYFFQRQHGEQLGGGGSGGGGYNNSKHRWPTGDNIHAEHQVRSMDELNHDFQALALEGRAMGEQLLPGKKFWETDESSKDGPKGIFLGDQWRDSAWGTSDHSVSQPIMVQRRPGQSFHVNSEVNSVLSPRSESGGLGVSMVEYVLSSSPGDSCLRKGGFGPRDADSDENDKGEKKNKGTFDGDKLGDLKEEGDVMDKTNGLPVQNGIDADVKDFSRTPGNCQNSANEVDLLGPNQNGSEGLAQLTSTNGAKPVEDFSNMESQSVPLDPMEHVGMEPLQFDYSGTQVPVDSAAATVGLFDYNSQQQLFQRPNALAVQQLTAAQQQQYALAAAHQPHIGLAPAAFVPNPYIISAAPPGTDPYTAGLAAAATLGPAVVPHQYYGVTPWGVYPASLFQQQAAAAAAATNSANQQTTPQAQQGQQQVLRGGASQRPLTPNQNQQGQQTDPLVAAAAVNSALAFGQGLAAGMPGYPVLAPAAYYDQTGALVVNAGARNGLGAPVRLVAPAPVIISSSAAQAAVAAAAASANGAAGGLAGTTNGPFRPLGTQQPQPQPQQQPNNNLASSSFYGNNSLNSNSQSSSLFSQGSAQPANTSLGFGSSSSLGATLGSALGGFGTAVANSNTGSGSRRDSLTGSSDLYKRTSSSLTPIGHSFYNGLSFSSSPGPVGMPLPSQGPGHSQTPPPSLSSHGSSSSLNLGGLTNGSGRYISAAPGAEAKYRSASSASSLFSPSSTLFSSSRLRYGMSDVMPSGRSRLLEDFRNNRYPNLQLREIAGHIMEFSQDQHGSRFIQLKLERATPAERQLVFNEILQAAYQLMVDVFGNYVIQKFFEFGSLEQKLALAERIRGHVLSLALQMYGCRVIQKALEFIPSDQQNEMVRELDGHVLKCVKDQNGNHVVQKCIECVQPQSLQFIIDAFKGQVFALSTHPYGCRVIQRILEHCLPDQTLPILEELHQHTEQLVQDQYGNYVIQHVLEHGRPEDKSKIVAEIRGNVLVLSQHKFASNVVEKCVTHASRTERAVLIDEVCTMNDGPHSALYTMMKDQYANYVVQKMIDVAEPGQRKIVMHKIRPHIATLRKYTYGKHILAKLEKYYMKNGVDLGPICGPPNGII
UniProt Q8TB72: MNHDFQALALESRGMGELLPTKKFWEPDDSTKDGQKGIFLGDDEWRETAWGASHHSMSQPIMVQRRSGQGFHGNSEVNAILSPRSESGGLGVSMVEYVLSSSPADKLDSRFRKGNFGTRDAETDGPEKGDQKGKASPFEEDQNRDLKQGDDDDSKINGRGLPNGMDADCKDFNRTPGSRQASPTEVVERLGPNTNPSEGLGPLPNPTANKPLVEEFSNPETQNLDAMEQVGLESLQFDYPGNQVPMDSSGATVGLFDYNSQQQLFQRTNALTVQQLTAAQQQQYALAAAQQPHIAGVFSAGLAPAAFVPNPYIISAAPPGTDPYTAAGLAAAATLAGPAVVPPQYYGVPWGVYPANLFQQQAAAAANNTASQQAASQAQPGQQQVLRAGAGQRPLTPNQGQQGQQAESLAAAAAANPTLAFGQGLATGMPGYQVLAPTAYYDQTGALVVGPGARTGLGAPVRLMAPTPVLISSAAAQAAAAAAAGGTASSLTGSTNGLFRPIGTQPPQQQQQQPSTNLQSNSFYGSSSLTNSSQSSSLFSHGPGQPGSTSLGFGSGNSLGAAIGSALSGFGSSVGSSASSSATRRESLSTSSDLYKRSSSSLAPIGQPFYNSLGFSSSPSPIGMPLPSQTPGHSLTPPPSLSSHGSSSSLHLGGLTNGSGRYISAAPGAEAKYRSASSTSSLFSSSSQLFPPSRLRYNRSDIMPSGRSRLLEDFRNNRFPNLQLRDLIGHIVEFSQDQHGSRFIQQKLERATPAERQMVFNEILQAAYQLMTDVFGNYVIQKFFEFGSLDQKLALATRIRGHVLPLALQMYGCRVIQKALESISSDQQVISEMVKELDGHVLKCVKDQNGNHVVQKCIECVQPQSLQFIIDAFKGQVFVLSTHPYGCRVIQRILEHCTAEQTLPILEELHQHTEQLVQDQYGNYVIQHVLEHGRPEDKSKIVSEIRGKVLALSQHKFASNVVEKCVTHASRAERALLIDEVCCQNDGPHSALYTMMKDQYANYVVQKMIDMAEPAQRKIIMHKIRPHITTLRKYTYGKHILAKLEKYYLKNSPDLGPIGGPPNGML
UniProt Q16630: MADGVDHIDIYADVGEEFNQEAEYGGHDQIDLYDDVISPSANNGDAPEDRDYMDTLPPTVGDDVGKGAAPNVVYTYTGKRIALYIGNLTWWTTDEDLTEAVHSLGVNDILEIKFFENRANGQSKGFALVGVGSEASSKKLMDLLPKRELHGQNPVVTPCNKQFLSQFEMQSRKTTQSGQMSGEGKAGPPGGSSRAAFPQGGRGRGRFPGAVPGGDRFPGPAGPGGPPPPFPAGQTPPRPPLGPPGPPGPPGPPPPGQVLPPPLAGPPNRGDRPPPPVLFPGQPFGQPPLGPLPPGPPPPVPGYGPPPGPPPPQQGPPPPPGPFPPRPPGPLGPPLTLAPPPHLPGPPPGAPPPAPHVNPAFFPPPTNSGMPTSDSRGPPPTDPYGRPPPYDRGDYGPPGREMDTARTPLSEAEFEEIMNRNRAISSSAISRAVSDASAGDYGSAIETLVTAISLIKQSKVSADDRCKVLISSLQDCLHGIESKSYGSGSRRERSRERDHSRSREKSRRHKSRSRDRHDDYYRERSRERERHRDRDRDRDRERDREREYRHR
UniProt P35637: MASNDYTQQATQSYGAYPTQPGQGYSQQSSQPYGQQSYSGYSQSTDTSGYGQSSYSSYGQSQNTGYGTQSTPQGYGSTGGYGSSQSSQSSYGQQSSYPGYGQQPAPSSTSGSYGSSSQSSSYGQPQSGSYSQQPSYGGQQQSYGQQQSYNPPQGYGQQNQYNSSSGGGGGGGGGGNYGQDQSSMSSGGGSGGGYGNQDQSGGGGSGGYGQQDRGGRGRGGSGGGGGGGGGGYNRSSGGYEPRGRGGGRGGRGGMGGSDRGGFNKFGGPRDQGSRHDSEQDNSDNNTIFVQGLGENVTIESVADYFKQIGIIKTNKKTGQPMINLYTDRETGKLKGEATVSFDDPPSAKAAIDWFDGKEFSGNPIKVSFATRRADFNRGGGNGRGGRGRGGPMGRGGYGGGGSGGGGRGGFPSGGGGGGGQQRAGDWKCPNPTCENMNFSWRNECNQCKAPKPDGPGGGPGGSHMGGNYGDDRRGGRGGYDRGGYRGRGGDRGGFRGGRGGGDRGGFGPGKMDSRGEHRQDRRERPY
UniProt P51116: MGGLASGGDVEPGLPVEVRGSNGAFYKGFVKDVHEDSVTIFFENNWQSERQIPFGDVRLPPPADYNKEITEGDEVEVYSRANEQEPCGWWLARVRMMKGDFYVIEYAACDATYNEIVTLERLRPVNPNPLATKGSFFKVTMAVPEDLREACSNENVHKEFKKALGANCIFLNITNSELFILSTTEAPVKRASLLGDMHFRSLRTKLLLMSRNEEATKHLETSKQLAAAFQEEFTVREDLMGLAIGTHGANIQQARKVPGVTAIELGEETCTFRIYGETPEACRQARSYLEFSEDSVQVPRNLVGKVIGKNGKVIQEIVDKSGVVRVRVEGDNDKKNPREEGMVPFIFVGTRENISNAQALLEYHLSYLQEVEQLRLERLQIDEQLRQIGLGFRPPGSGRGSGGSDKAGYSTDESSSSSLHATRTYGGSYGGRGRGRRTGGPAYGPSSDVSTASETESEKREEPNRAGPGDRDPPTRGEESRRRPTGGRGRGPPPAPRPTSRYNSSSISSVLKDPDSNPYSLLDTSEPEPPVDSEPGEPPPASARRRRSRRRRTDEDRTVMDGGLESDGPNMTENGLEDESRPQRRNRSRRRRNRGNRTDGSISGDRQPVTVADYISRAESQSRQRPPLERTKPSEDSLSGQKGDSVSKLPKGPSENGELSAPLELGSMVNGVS
UniProt O00425: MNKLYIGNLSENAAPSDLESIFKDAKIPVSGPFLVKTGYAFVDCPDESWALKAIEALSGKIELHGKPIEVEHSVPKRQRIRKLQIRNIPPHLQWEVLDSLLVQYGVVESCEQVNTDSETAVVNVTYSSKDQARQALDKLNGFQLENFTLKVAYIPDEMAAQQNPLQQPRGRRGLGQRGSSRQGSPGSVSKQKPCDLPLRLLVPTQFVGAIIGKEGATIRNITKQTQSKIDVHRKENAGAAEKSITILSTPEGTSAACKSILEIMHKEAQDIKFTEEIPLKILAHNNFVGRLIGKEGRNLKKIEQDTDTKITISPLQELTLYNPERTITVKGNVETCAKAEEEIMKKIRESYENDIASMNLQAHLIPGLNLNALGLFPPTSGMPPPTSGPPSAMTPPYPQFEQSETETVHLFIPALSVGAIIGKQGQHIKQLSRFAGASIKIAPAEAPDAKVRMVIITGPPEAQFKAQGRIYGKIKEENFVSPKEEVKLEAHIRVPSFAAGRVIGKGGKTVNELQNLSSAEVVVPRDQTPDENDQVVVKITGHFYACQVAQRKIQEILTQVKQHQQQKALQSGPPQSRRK
UniProt P11940: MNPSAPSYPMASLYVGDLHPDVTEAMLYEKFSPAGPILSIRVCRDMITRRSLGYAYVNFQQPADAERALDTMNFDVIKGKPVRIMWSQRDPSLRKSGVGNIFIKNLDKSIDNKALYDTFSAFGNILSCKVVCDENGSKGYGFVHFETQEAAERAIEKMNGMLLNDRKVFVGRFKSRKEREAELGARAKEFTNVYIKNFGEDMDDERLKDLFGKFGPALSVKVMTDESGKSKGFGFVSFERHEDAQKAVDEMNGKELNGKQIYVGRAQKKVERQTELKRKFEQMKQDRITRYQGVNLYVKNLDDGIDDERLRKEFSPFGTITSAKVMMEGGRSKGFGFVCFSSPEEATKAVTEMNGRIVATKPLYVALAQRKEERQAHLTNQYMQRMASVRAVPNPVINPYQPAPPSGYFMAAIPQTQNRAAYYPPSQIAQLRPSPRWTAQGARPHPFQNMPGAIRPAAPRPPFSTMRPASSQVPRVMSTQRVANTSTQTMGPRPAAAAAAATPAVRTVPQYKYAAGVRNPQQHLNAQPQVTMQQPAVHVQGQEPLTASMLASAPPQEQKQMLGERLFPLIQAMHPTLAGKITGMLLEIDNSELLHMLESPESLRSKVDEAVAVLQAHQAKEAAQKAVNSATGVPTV
UniProt P26599: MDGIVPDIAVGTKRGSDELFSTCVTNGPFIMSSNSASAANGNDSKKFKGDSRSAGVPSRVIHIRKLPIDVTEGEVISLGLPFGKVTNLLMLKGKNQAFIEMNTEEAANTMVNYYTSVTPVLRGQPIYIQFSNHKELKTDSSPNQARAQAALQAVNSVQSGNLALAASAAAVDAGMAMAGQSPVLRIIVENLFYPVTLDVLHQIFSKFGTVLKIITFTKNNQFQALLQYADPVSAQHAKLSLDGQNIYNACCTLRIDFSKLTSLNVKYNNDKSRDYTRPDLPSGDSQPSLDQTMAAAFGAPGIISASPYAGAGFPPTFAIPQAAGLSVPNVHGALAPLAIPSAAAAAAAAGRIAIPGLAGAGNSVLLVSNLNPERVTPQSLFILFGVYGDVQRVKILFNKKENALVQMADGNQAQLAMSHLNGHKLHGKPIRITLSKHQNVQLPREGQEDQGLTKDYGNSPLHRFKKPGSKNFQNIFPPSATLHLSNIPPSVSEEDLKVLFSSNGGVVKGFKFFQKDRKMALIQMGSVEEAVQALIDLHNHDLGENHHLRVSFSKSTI
UniProt Q07955: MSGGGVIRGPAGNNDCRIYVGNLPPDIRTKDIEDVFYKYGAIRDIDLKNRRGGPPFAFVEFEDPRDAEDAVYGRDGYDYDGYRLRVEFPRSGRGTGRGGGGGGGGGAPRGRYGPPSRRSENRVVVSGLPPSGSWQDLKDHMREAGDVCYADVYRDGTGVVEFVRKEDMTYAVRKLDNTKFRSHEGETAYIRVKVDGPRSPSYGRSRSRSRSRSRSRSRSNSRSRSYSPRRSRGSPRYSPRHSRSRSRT
UniProt P67809: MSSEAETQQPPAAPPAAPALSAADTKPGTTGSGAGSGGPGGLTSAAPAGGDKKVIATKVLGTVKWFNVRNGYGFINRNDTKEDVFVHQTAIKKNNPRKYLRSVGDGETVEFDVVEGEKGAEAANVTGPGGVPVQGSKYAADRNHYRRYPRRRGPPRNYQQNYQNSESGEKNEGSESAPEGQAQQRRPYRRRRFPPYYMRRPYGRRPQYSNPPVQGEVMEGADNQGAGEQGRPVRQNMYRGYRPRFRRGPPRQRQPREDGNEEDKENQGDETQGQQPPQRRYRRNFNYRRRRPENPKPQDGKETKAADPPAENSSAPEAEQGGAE

In paper doi:10.1101/760967:

What was measured:
[1] = biological target: PUM1 (human (endogenous in TCam-2)) (UniProt Q14671); experiment: affinity purification with mass spectrometry
[2] = biological target: PUM2 (human (endogenous in TCam-2)) (UniProt Q8TB72); experiment: affinity purification with mass spectrometry

Row | Molecule | binding [1] | binding [2]
1 | CPSF6 (from UniProt Q16630 1-551) | binds | 
2 | FUS (from UniProt P35637 1-526) | binds | 
3 | FXR1 (from UniProt P51114 1-621) | binds | binds
4 | FXR2 (from UniProt P51116 1-673) | binds | binds
5 | G3BP1 (from UniProt Q13283 1-466) |  | binds
6 | HNRNPK (from UniProt P61978 1-463) | binds | 
7 | IGF2BP3 (from UniProt O00425 1-579) | binds | 
8 | PABPC1 (from UniProt P11940 1-636) | binds | binds
9 | PTBP1 (from UniProt P26599 1-557) |  | binds
10 | SRSF1 (from UniProt Q07955 1-248) |  | binds
11 | YBX1 (from UniProt P67809 1-324) | binds | 
12 | G3BP2 (protein, UniProt Q9UN86 1-482) MVMEKPSPLLVGREFVRQYYTLLNKAPEYLHRFYGRNSSYVHGGVDASGKPQEAVYGQNDIHHKVLSLNFSECHTKIRHVDAHATLSDGVVVQVMGLLSNSGQPERKFMQTFVLAPEGSVPNKFYVHNDMFRYEDEVFGDSEPELDEESEDEVEEEQEERQPSPEPVQENANSGYYEAHPVTNGIEEPLEESSHEPEPEPESETKTEELKPQVEEKNLEELEEKSTTPPPAEPVSLPQEPPKAFSWASVTSKNLPPSGTVSSSGIPPHVKAPVSQPRVEAKPEVQSQPPRVREQRPRERPGFPPRGPRPGRGDMEQNDSDNRRIIRYPDSHQLFVGNLPHDIDENELKEFFMSFGNVVELRINTKGVGGKLPNFGFVVFDDSEPVQRILIAKPIMFRGEVRLNVEEKKTRAARERETRGGGDDRRDIRRNDRGPGGPRGIVGGGMMRDRDGRGPPPRGGMAQKLGSGRGTGQMEGRFTGQRR |  | binds
13 | SRSF7 (protein, UniProt Q16629 1-238) MSRYGRYGGETKVYVGNLGTGAGKGELERAFSYYGPLRTVWIARNPPGFAFVEFEDPRDAEDAVRGLDGKVICGSRVRVELSTGMPRRSRFDRPPARRPFDPNDRCYECGEKGHYAYDCHRYSRRRRSRSRSRSHSRSRGRRYSRSRSRSRGRRSRSASPRRSRSISLRRSRSASLRRSRSGSIKGSRYFQSPSRSRSRSRSISRPRSSRSKSRSPSPKRSRSPSGSPRRSASPERMD |  | binds
14 | MATR3 (protein, UniProt P43243 1-847) MSKSFQQSSLSRDSQGHGRDLSAAGIGLLAAATQSLSMPASLGRMNQGTARLASLMNLGMSSSLNQQGAHSALSSASTSSHNLQSIFNIGSRGPLPLSSQHRGDADQASNILASFGLSARDLDELSRYPEDKITPENLPQILLQLKRRRTEEGPTLSYGRDGRSATREPPYRVPRDDWEEKRHFRRDSFDDRGPSLNPVLDYDHGSRSQESGYYDRMDYEDDRLRDGERCRDDSFFGETSHNYHKFDSEYERMGRGPGPLQERSLFEKKRGAPPSSNIEDFHGLLPKGYPHLCSICDLPVHSNKEWSQHINGASHSRRCQLLLEIYPEWNPDNDTGHTMGDPFMLQQSTNPAPGILGPPPPSFHLGGPAVGPRGNLGAGNGNLQGPRHMQKGRVETSRVVHIMDFQRGKNLRYQLLQLVEPFGVISNHLILNKINEAFIEMATTEDAQAAVDYYTTTPALVFGKPVRVHLSQKYKRIKKPEGKPDQKFDQKQELGRVIHLSNLPHSGYSDSAVLKLAEPYGKIKNYILMRMKSQAFIEMETREDAMAMVDHCLKKALWFQGRCVKVDLSEKYKKLVLRIPNRGIDLLKKDKSRKRSYSPDGKESPSDKKSKTDGSQKTESSTEGKEQEEKSGEDGEKDTKDDQTEQEPNMLLESEDELLVDEEEAAALLESGSSVGDETDLANLGDVASDGKKEPSDKAVKKDGSASAAAKKKLKKVDKIEELDQENEAALENGIKNEENTEPGAESSENADDPNKDTSENADGQSDENKDDYTIPDEYRIGPYQPNVPVGIDYVIPKTGFYCKLCSLFYTNEEVAKNTHCSSLPHYQKLKKFLNKLAEERRQKKET | binds | binds
15 | CPSF7 (protein, UniProt Q8N684 1-471) MSEGVDLIDIYADEEFNQDPEFNNTDQIDLYDDVLTATSQPSDDRSSSTEPPPPVRQEPSPKPNNKTPAILYTYSGLRNRRAAVYVGSFSWWTTDQQLIQVIRSIGVYDVVELKFAENRANGQSKGYAEVVVASENSVHKLLELLPGKVLNGEKVDVRPATRQNLSQFEAQARKRECVRVPRGGIPPRAHSRDSSDSADGRATPSENLVPSSARVDKPPSVLPYFNRPPSALPLMGLPPPPIPPPPPLSSSFGVPPPPPGIHYQHLMPPPPRLPPHLAVPPPGAIPPALHLNPAFFPPPNATVGPPPDTYMKASAPYNHHGSRDSGPPPSTVSEAEFEDIMKRNRAISSSAISKAVSGASAGDYSDAIETLLTAIAVIKQSRVANDERCRVLISSLKDCLHGIEAKSYSVGASGSSSRKRHRSRERSPSRSRESSRRHRDLLHNEDRHDDYFQERNREHERHRDRERDRHH | binds | 
16 | LIN28A (protein, UniProt Q9H9Z2 1-209) MGSVSNQQFAGGCAKAAEEAPEEAPEDAARAADEPQLLHGAGICKWFNVRMGFGFLSMTARAGVALDPPVDVFVHQSKLHMEGFRSLKEGEAVEFTFKKSAKGLESIRVTGPGGVFCIGSERRPKGKSMQKRRSKGDRCYNCGGLDHHAKECKLPPQPKKCHFCQSISHMVASCPLKAQQGPSAQGKPTYFREEEEEIHSPTLLPEAQN | binds | 

Results are given in words; binding and its absence hold for the method and conditions named. In cells and extracts the contact can be indirect. A yes stands for co-enrichment or nearness to the bait. Other partners may have been found.
